In assay [1] the target is T1, human topoisomerase I (human, UniProt P11387 1-765, limits assumed).
T1 construct: also called top1; top 1
T1 sequence (looked up): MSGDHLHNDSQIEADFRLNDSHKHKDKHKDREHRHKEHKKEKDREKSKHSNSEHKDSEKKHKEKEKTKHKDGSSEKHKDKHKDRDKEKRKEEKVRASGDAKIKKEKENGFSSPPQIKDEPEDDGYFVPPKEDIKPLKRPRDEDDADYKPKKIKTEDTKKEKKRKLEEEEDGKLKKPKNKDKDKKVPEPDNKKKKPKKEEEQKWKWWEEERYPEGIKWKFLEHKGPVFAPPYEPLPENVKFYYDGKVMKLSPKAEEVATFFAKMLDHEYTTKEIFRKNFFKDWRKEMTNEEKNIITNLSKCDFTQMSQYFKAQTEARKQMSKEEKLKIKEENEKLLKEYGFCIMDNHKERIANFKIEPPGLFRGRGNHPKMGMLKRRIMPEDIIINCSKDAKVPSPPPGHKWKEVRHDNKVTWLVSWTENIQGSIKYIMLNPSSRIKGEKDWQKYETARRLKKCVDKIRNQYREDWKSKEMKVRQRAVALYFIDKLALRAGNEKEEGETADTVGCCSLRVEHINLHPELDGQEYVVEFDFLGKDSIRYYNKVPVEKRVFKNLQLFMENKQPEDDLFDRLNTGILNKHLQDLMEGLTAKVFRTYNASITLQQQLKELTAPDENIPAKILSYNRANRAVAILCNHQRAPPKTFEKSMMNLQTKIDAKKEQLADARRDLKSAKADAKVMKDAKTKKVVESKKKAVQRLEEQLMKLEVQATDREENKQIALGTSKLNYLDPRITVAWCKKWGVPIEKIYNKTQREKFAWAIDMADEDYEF
The experiment in a line: phage display biopanning against top1-DNA-9AC, analytical titering against top1. On the procedure: Phage display: Phage display was performed as described by Smith (Parmley 1989). Briefly, top1 was first biotinylated with a biotin derivative containing a spacer engineered to reduced steric interference (Pierce EZ-Link Biotin-PEO-Amine). The reaction was performed at a 5:1 molar ratio of biotin:top1 in 10 mM HEPES (pH 8.2) buffered 500 mM NaCl. The unreacted biotin was removed by gel filtration in a Biospin 30 column (BioRad) and biotinylated top1 was assayed for activity using a pull down method with streptavidin coated beads. The biotinylated top1 maintained catalytic activity. For phage display, 20 μg biotinylated top1 was reacted with a mixture of pBR322 and 9AC and 20 μg was applied to a 30 mm plastic petri dish coated with 10 μg of neutravidin (Pierce). The dish was then blocked with 3.0% bovine serum albumin, and 10 μl of a 10⁹/μl titer phage library in 100 μl TBS-0.05% Tween was added. Phage were allowed to associate with gentle rocking for 2 hours at 4° C., and then washed repeatedly over 2 hours at 4° C. with buffered saline containing 0.1% Tween. […]
Analytical titering: Ten μl of amplified phage clones (approximately 10¹² cfu) were incubated in 50 nM top1 for one hour at 4° C. on a rocker. […] Competent E. coli were added directly to the washed plates and the output assessed by counting a 10⁻⁶ dilution of the culture on tetracycline plates (FIG. 1). […]

Assay [2] has as its target T1, human topoisomerase I. The experiment in a line: fluorescence polarization, human placental 91 kDa top1 titrated into 500 nM fluorescein-labeled T1BP1.

No constants are given. Whether binding was seen depends on the method and setting. Some entries that bind do so weakly or less than the wild type.

Take SSQVVGVPQLMQSSP (also called CPP2) [T1BP1]: the binding entry with human topoisomerase I [1] and with human topoisomerase I [2] was “binds” in each case.

Source of the values: patent US20100137221A1, “PEPTIDES THAT INTERACT WITH TOPOISOMERASE I AND METHODS THEREOF” (UNIVERSITY UTAH RESEARCH FOUNDATION, priority 2007, published 2010).
